PubChem BioAssay AID504774 – Drosophila RNAi Screening Center | 2011

Test: 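Genes required for cells to withstand methyl methanesulphonate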 (primary screen)
System: Drosophila Kc167 cells
Reagents: long dsRNA against Drosophila genes, about 0.25 µg dsRNA per well
Duration: about 6 days: 3 days knock-down, then 3 days with or without MMS
Conditions: methyl methanesulphonate 0.004% (w/v) for 3 days after knock-down
Detection: 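Viability in wells given MMS, read as ATP luminescence, normalised by quantiles plate by plate and averaged across replicates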
Reading the numbers: mean viability with MMS and viability with MMS: higher = more surviving cells after MMS
The deposit covers about 23,000 reagents; shown is a random part of those that have a named target and a result. 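Values are quantile-normalised luminescence on an arbitrary scale; higher means more cells surviving MMS.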 Reagents against one gene are numbered here.

The opening 3 records as a preview:
target gene	reagent no.	mean viability with MMS	viability with MMS, replicate 1	viability with MMS, replicate 2
CG16970 (retired record)	1	3.53e6	4.01e6	4.00e6
CG16970 (retired record)	2	3.59e6	4.14e6	4.00e6
CG13409	1	3.47e6	3.96e6	3.94e6

Main list, from the start:
target gene	reagent no.	mean viability with MMS	viability with MMS, replicate 1	viability with MMS, replicate 2
CG16970 (retired record)	1	3.53e6	4.01e6	4.00e6
CG16970 (retired record)	2	3.59e6	4.14e6	4.00e6
CG13409	1	3.47e6	3.96e6	3.94e6
Drep3	1	3.63e6	3.51e6	3.48e6
Drep3	2	1.77e6	3.81e6	
Drep3	3	3.58e6	4.05e6	4.04e6
CG16890	1	3.66e6	4.00e6	4.34e6
Dad	1	3.77e6	4.18e6	4.28e6
CCT4	1	3.34e6	3.80e6	3.74e6
CG9254	1	3.57e6	4.16e6	3.93e6
ana1	1	3.55e6	3.89e6	4.16e6
ana1	2	3.49e6	3.94e6	4.02e6
Skp2	1	3.52e6	4.00e6	3.96e6
CG9649	1	3.62e6	3.92e6	4.31e6
fray	1	3.27e6	3.68e6	3.78e6
mRNA-cap	1	3.23e6	3.59e6	3.59e6
Hex-C	1	3.37e6	3.63e6	4.07e6
Cda9	1	3.48e6	3.91e6	3.97e6
wapl	1	3.54e6	4.16e6	3.88e6
CG14356	1	3.50e6	3.83e6	4.11e6
CG12637	1	3.56e6	4.07e6	4.00e6
sunn	1	3.40e6	3.91e6	3.86e6
CG30431	1	3.53e6	4.07e6	4.01e6
CG30431	2	3.54e6	4.11e6	3.94e6
CG3815	1	3.48e6	3.95e6	3.83e6
CG5267	1	3.51e6	3.96e6	4.01e6
Apt1	1	3.48e6	4.05e6	3.82e6
Sh3beta	1	3.55e6	3.98e6	4.08e6
Sh3beta	2	3.75e6	4.31e6	4.09e6
